Consider 38 molecules from PubChem BioAssay AID2685 (National Center for Advancing Translational Sciences (NCATS), 2010).

The test in a line: qHTS Assay for Lipid Storage Modulators in Drosophila S3 Cells.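 For cell number change: cells counted by Cell Tracker Red CMTPX staining in the red channel.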 Particulars: BODIPY lipid droplet fluorescence, 18-24 h; for cell number change: measured here: cell count max response, cells fed with added oleic acid. In outline:
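Drosophila S3 cells loaded with oleic acid (400 uM, as added) and compounds at several concentrations; lipid droplets imaged by 488-nm laser-scanning cytometry, 500–530 nm intensity and object ratio to cell channel. Percent activity normalized to 20 uM Triacsin C.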
(In general: Quantitative high-throughput screening tests each substance at several concentrations.)

The mark [1] stands for this setting: measured here: cell number channel AC50, cells fed with added oleic acid.
The mark [2] stands for this setting: measured here: lipid fluorescence (Fed channel) AC50, cells fed with added oleic acid.

Each structure is given as a SMILES string. The list shows a part of the results. These are further read-outs of the screen, such as a control signal, another cell line or another target. No call is given for them. The list favours compounds with an active or inconclusive main result. Potencies come from curve fits of mixed quality, noted in brackets.

In general, AC50 refers to the concentration at which the activity in the assay is half-maximal. As for `Cc1cc(-c2ccccc2)n(-c2ccc(C(=O)NC(C)C)cc2)n1`, the cell number change is 17.2%. Further, the AC50 under setting [1] was 0.206 µM [rising, full curve, poor fit].
As for `CCCCN(C)CCNC(=O)C1CCCN(S(=O)(=O)c2cccc3nsnc23)C1` (stereo unspecified), the cell number change came out at 6.05%. The AC50 under setting [2] was 2.59 µM [falling, partial curve].
As to `CCN(CC)S(=O)(=O)c1ccc(/C=C/C(=O)Nc2ccc(Br)cc2F)cc1`, the cell number change is -6.51%. Also, the AC50 under setting [2] was 7.31 µM [falling, single point].
As to `CCOC(=O)c1cccnc1NC(=O)c1ccccc1`, the cell number change amounted to 29.5%. For the same molecule, under setting [2], the AC50 is 3.66 µM [rising, single point].
As for `COc1ccc(NC(=O)COC(=O)c2ccc(NS(=O)(=O)/C=C/c3ccccc3)cc2)cc1`, the cell number change is 12.7%.
`COc1ccc(C)cc1NC(=O)C(Sc1nncn1C)c1ccccc1` (stereo unspecified): the cell number change worked out at 57.2%. Further, the AC50 under setting [1] is 20.6 µM [rising, single point].
Turning to `CCC(C)CCN1CCN=C1N(C)C` (stereo unspecified), the cell number change is 19.9%.
For `COc1ccc(/C=C(\NC(=O)c2ccc(C)cc2)C(=O)Nc2c(C)n(C)n(-c3ccccc3)c2=O)cc1`, the cell number change turned out to be 7.47%. In addition, the AC50 under setting [2] was 7.31 µM [falling, partial curve, poor fit].
As to `Cn1cnnc1SCC(=O)NCc1ccccc1`, the AC50 under setting [1] is 0.164 µM [falling, full curve, poor fit].
As for `CCN(CC)CCN(Cc1cc2cc3c(cc2[nH]c1=O)OCO3)C(=S)NCCCOC`, the cell number change was -11.8%. In addition, under setting [1], the AC50 was 6.51 µM [falling, single point]. In addition, under setting [2], the AC50 was 0.58 µM [falling, single point].
For the molecule `CSc1cccc(NC(=S)N(CCCN2CCCC2)Cc2cccn2Cc2ccc(Cl)cc2)c1`, the cell number change was -60.2%. The AC50 under setting [1] was 29.1 µM [falling, single point]. Moreover, the half-maximal activity concentration (AC50) under setting [2] was 29.1 µM [falling, single point].
For the molecule `Cc1ncc(CN2CCCC(C(=O)Nc3ccc(-c4cscn4)cc3)C2)cn1` (stereo unspecified), the cell number change was found to be 7.23%. Also, under setting [2], the concentration at half-maximal activity (AC50) is 2.91 µM [rising, single point].
Turning to `CCc1c(C(=O)N/N=C/c2cn[nH]c2-c2ccc(F)cc2)csc1C`, the cell number change amounted to 12.9%. Moreover, under setting [2], the concentration at half-maximal activity (AC50) is 2.91 µM [rising, full curve].
Regarding `Cc1cc(C(=O)N2CCN(c3ccccc3)CC2)c(C)o1`, the cell number change is -9.5%. Moreover, under setting [2], the AC50 was 1.46 µM [falling, full curve, poor fit].
On to `CCCn1c(SCC(=O)N(C)CC(=O)Nc2ccc(C)cc2)n[nH]c1=O`, for which the cell number change is -1.2%. Also, the AC50 under setting [2] is 4.11 µM [rising, full curve].
On to `Cc1ccc(C(=O)CN2C(=O)NC3(CCc4ccccc43)C2=O)c(C)c1` (stereo unspecified), for which the cell number change was 62.7%. Besides, under setting [1], the AC50 was 20.6 µM [rising, single point].
In the case of `CCC(C)c1ccccc1NC(=O)c1cccnc1` (stereo unspecified), the AC50 under setting [1] is 0.651 µM [rising, single point].
`O=c1[nH]c(CSc2ncnc3sc(-c4ccccc4)cc23)nc2ccccc12`: the cell number change was 26.6%. Moreover, under setting [2], the AC50 is 29.1 µM [rising, single point].
Turning to `CC(C)CNC(=O)[C@H](Cc1ccccc1)NC(=O)c1ccco1`, the cell number change worked out at 58.6%. For the same molecule, the AC50 under setting [2] is 6.51 µM [falling, single point].
For `COc1cccc(C(=O)Nc2ccc(Oc3cccc(C(F)(F)F)c3)nc2)c1`, the cell number change is -47.8%. The AC50 under setting [1] is 29.1 µM [falling, single point]. Besides, under setting [2], the AC50 was 18.4 µM [falling, single point].
As for `CCc1ccc(OCC(=O)Nc2cccc3c2CCCC3)cc1`, the cell number change was -32.5%. Moreover, under setting [1], the AC50 was 29.1 µM [falling, single point]. In addition, the AC50 under setting [2] was 0.146 µM [rising, partial curve, poor fit].
As for `O=C1CCCN1C(=O)CSc1nnnn1-c1ccccc1`, the cell number change is 20.1%. Under setting [2], the concentration at half-maximal activity (AC50) was 29.1 µM [rising, single point].
Regarding `CC(Sc1nnc(C2CC2)n1C1CC1)C(=O)NCc1cccs1` (stereo unspecified), the cell number change was -50%. Under setting [1], the AC50 was 1.16 µM [falling, partial curve]. In addition, under setting [2], the half-maximal activity concentration (AC50) is 0.00411 µM [falling, full curve, poor fit].
In the case of `CC(C)(C)CN1CCNC(=O)C1CC(=O)N1CCN(c2ccccc2)CC1` (stereo unspecified), the cell number change was 18.3%. Further, under setting [2], the AC50 was 4.11 µM [rising, partial curve, poor fit].
Turning to `CC(COc1ccc(C(C)C)cc1)NC(=O)c1ccc(Br)o1` (stereo unspecified), the cell number change is -12%. Moreover, the concentration at half-maximal activity (AC50) under setting [2] is 3.26 µM [rising, partial curve, poor fit].
With `Cc1nc2ccc(C(=O)O)cc2[nH]1`, the cell number change is -69.1%. Further, the AC50 under setting [1] is 23.1 µM [falling, single point].
As for `O=C(NCc1ccc(N2CCCC2=O)cc1)c1cnccn1`, the cell number change was -62%. For the same molecule, the AC50 under setting [1] was 5.17 µM [falling, full curve, poor fit]. Also, under setting [2], the AC50 was 6.51 µM [falling, partial curve].
As for `COc1cc(C(=O)N/N=C/c2cn(Cc3cccc(F)c3)c3ccccc23)ccc1O`, the cell number change is -48.5%. Further, under setting [1], the half-maximal activity concentration (AC50) is 25.9 µM [falling, single point].
For the molecule `CN1C(=O)/C(=C/c2ccc(C(F)(F)F)cc2)Sc2ccc(C(=O)N3CCN(c4ccccn4)CC3)cc21`, the cell number change came to 64.9%. Under setting [2], the AC50 is 5.8 µM [falling, single point].
With `Cc1ccc(C)c(-n2nnnc2SCC(=O)NCCC2=CCCCC2)c1`, the AC50 under setting [1] was 4.11 µM [falling, partial curve, poor fit].
`O=S(=O)(Cc1cc(Cl)nc(-c2ccncc2)n1)c1ccccc1`: the cell number change is -58.1%. Further, the AC50 under setting [1] is 4.11 µM [falling, full curve, poor fit]. Besides, under setting [2], the AC50 is 3.26 µM [falling, full curve].
With `CC(C)CC(=O)Nc1nnc(SCC(=O)NCC2CCCO2)s1` (stereo unspecified), the cell number change was -10.9%.
Still for that read-out and setting: as for `Cc1cc(C(=O)CSc2n[nH]c(N)n2)c(C)n1C1CC1`, the figure is -1.46%.
As to `NC(=O)c1ccsc1NC(=O)CS(=O)(=O)c1ccccc1`, the cell number change is -27.5%. Also, under setting [1], the concentration at half-maximal activity (AC50) is 1.64 µM [rising, partial curve].
As for `COc1cc(Cl)ccc1OCc1cc(C(=O)N2CCCCCCC2)no1`, the cell number change is -21.5%. Moreover, the AC50 under setting [2] was 5.17 µM [rising, partial curve].
For the molecule `COc1ccc(NC(=O)CSc2ncn[nH]2)c([N+](=O)[O-])c1`, the AC50 under setting [2] was 1.46 µM [falling, partial curve].
In the case of `COc1cccc(-n2c(Cn3nc(C(F)(F)F)cc3C)n[nH]c2=S)c1`, the cell number change is 32.2%. For the same molecule, the AC50 under setting [1] was 5.8 µM [rising, partial curve]. For the same molecule, the AC50 under setting [2] was 23.1 µM [rising, single point].
As for `O=[N+]([O-])C1C(c2ccccc2)=NOC1c1ccccc1O` (stereo unspecified), the cell number change is -8.55%. Under setting [2], the AC50 was 32.6 µM [falling, single point].
